The target in this assay is Med17-HA (S. cerevisiae (endogenous in S288c)) (UniProt P32569). Nature of the assay: affinity purification with mass spectrometry; CoIP of Med17-HA on anti-HA magnetic beads from cryoground yeast lysate, 2 h at 4 °C; 20 mM HEPES pH 7.5, 300 mM KOAc, 10% glycerol, 0.01% NP-40, 6 mM MnSO4, 1 mM DTT, Cyanase nuclease; parallel control CoIP from 15N-labelled wild type cells, mixing after purification (MAP); GeLC-MS/MS, three biological replicates.

The chains behind the UniProt entries cited, without tags or fusion partners.
UniProt P32569: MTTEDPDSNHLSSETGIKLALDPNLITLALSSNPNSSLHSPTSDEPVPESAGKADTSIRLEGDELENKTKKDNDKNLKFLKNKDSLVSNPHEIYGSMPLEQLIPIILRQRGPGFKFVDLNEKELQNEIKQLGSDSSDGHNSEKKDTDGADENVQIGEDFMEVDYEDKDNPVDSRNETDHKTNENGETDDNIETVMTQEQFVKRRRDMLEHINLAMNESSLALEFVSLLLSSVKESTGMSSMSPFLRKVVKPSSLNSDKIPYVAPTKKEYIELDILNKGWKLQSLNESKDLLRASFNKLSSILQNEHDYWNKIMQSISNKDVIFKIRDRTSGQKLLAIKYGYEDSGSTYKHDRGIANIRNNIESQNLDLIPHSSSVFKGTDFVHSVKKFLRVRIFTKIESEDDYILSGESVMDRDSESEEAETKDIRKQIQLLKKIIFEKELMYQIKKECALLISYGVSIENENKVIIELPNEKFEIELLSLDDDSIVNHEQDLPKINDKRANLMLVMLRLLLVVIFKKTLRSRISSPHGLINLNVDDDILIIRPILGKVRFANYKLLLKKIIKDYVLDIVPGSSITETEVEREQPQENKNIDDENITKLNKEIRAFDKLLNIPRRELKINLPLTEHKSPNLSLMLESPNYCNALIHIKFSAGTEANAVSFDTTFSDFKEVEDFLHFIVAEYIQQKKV

No constants are given. Whether binding was seen depends on the method and setting. Binding seen in cells or lysates may run through a third protein. These calls come from enrichment with a bait or labelling near it, and not all partners need be listed.

B1: Nop4 (protein, UniProt P37838 1-685)
chain: MEETIENVEVPSSNVSKQNDDGLDMKTLFVRSIPQDVTDEQLADFFSNFAPIKHAVVVKDTNKRSRGFGFVSFAVEDDTKEALAKARKTKFNGHILRVDIAKRRDRSKKTSEVVEKSTPESSEKITGQNNEDEDDADGEDSMLKGKPKLIIRNMPWSCRDPVKLKKIFGRYGTVVEATIPRKRDGKLCGFAFVTMKKISNCRIALENTKDLKIDGRKVAVDFAVQKNRWEDYKKAQPEMNDKDDNESGNEDAEENHDDEEDENEEEDRQVDQASKNKESKRKAQNKREDFSVFVRNVPYDATEESLAPHFSKFGSVKYALPVIDKSTGLAKGTAFVAFKDQYTYNECIKNAPAAGSTSLLIGDDVMPEYVYEGRVLSITPTLVREDAGRMAEKNAAKRKEALGKAPGEKDRRNLYLLNEGRVVEGSKMADLLTNTDMEIREKSYKLRVEQLKKNPSLHLSMTRLAIRNLPRAMNDKALKALARKAVVEFATEVKNKERHPLSKEEIIRSTKEKYKFMGPDEIEAQKKKDKKSGVVKQAKVIMEVKGSTAGRSRGYGFVEFRDHKNALMGLRWLNCHAVTSDEILEGLNDDEKKQVDNDLGKGRRLCVEFAIENSNVVKRRREQLKQARTKRTRPDNEDTGDVGESENKKPKKEEATTPTNPDDKKMGDDIKRIIGFKRKRKHAKK
B1: the binding entry is on record as “binds”.

B2: Rpf2 (protein, UniProt P36160 1-344)
chain: MIRTVKPKNARAKRALVKREAKLVENVKQALFIPGQSCNKNLHDIMVDLSALKKPDMKRFNRKNDIHPFEDMSPLEFFSEKNDCSLMVLMTSSKKRKNNMTFIRTFGYKIYDMIELMVADNFKLLSDFKKLTFTVGLKPMFTFQGAAFDTHPVYKQIKSLFLDFFRGESTDLQDVAGLQHVISMTIQGDFQDGEPLPNVLFRVYKLKSYKSDQGGKRLPRIELVEIGPRLDFKIGRIHTPSPDMVTEAHKKPKQLEMKTKKNVELDIMGDKLGRIHMGKQDLGKLQTRKMKGLKSKFDQGTEEGDGEVDEDYEDEASYSDDGQEYEEEFVSATDIEPSAKRQKK
Regarding B2, the binding entry is recorded as “binds”.

B3: Nop14 (protein, UniProt Q99207 1-810)
chain: MAGSQLKNLKAALKARGLTGQTNVKSKNKKNSKRQAKEYDREEKKKAIAEIREEFNPFEIKAARNKRRDGLPSKTADRIAVGKPGISKQIGEEQRKRAFEARKMMKNKRGGVIDKRFGERDKLLTEEEKMLERFTRERQSQSKRNANLFNLEDDEDDGDMFGDGLTHLGQSLSLEDELANDEEDFLASKRFNEDDAELQQPQRKKTKAEVMKEVIAKSKFYKQERQKAQGIMEDQIDNLDDNFEDVMSELMMTQPKKNPMEPKTDLDKEYDIKVKELQLDKRAAPSDRTKTEEEKNAEAEEKKRELEQQRLDRMNGMIELEEGEERGVEDLDDGFWENEEDYEDDNDGIADSDDDIKFEDQGRDEGFSQILKKKNISISCPRTHDALLDQVKKLDLDDHPKIVKNIIKAYQPKLAEGNKEKLGKFTAVLLRHIIFLSNQNYLKNVQSFKRTQNALISILKSLSEKYNRELSEECRDYINEMQARYKKNHFDALSNGDLVFFSIIGILFSTSDQYHLVITPALILMSQFLEQIKFNSLKRIAFGAVLVRIVSQYQRISKRYIPEVVYFFQKILLTFIVEKENQEKPLDFENIRLDSYELGLPLDVDFTKKRSTIIPLHTLSTMDTEAHPVDQCVSVLLNVMESLDATISTVWKSLPAFNEIILPIQQLLSAYTSKYSDFEKPRNILNKVEKLTKFTEHIPLALQNHKPVSIPTHAPKYEENFNPDKKSYDPDRTRSEINKMKAQLKKERKFTMKEIRKDAKFEARQRIEEKNKESSDYHAKMAHIVNTINTEEGAEKNKYERERKLRGGKK
With B3, the binding entry was “binds”.

B4: Utp22 (protein, UniProt P53254 1-1237)
chain: MATSVKRKASETSDQNIVKVQKKHSTQDSTTDNGSKENDHSSQAINERTVPEQENDESDTSPESNEVATNTAATRHNGKVTATESYDIHIARETAELFKSNIFKLQIDELLEQVKLKQKHVLKVEKFLHKLYDILQEIPDWEEKSLAEVDSFFKNKIVSVPFVDPKPIPQNTNYKFNYKKPDISLIGSFALKAGIYQPNGSSIDTLLTMPKELFEKKDFLNFRCLHKRSVYLAYLTHHLLILLKKDKLDSFLQLEYSYFDNDPLLPILRISCSKPTGDSLSDYNFYKTRFSINLLIGFPYKVFEPKKLLPNRNCIRIAQESKEQSLPATPLYNFSVLSSSTHENYLKYLYKTKKQTESFVEATVLGRLWLQQRGFSSNMSHSGSLGGFGTFEFTILMAALLNGGGINSNKILLHGFSSYQLFKGVIKYLATMDLCHDGHLQFHSNPENSSSSPASKYIDEGFQTPTLFDKSTKVNILTKMTVSSYQILKEYAGETLRMLNNVVQDQFSNIFLTNISRFDNLKYDLCYDVQLPLGKYNNLETSLAATFGSMERVKFITLENFLAHKITNVARYALGDRIKYIQIEMVGQKSDFPITKRKVYSNTGGNHFNFDFVRVKLIVNPSECDKLVTKGPAHSETMSTEAAVFKNFWGIKSSLRRFKDGSITHCCVWSTSSSEPIISSIVNFALQKHVSKKAQISNETIKKFHNFLPLPNLPSSAKTSVLNLSSFFNLKKSFDDLYKIIFQMKLPLSVKSILPVGSAFRYTSLCQPVPFAYSDPDFFQDVILEFETSPKWPDEITSLEKAKTAFLLKIQEELSANSSTYRSFFSRDESIPYNLEIVTLNILTPEGYGFKFRVLTERDEILYLRAIANARNELKPELEATFLKFTAKYLASVRHTRTLENISHSYQFYSPVVRLFKRWLDTHLLLGHITDELAELIAIKPFVDPAPYFIPGSLENGFLKVLKFISQWNWKDDPLILDLVKPEDDIRDTFETSIGAGSELDSKTMKKLSERLTLAQYKGIQMNFTNLRNSDPNGTHLQFFVASKNDPSGILYSSGIPLPIATRLTALAKVAVNLLQTHGLNQQTINLLFTPGLKDYDFVVDLRTPIGLKSSCGILSATEFKNITNDQAPSNFPENLNDLSEKMDPTYQLVKYLNLKYKNSLILSSRKYIGVNGGEKGDKNVITGLIKPLFKGAHKFRVNLDCNVKPVDDENVILNKEAIFHEIAAFGNDMVINFETD
In the case of B4, the binding entry is reported as “binds”.

B5: Nop13 (protein, UniProt P53883 1-403)
chain: MSETELSKEDAVTKKDNEEQVKKALLDPTKKRKAEDEIEIDLKSSIPLSKKQKRLLRRGKVTLEELNAKYNIDPKSIEEYKEDAEKKKSGASEKDAQGEESTINTPTGDESGEVVKKKKKDENKYGVWIGNLSFDTTKDDLVRFFIAKTKDNEDEKSRVTEQDITRLSMPRVAAKNSNAMKNKGFCYMFFKNVEQMKAVLELSESHLNGRNMLIKDSENYSGRPDKDDLVAMSKNPPSRILFVGNLSFDVTDDLLRKHFQHCGDIVKIRMATFEDSGKCKGFAFIDFKNEEGSTNALKDKSCRKIAGRPLRMEYGEDRSKRQVRKKVENVSRNNSSSFDISNNKGYDRAGQDNGSKPEYKRSNANRRPPVDSNNRTKSSVALATAQRGSAAIVPSQGKKVKFD
As to B5, the binding entry is listed as “binds”.

The values above are taken from publication PMC5327418.
